Results from PubChem BioAssay AID1963867 (Molecular Pharmacology Branch, DTP, NCI, 2024).
Values joined by “and” are separate entries in the source; they are usually repeats but may differ in a detail not shown here. Equal entries are not always repeated. Further values from the same series stand in other lists.

Tested on: KRAS-mutant PDC tumor spheroid with HUVEC/MSC, viability
Assay: Anticancer human tumor 327498-153-R-J2-PDC patient-derived uterine carcinosarcoma cell line growth inhibition [KRAS2]
Details: active compounds read low; active = viability on the fitted dose curve at most 10% of control; inactive = the rest
Source text: Multicellular complex tumor spheroid response to RAS pathway inhibitors in combination with a targeted agents in patient-derived cell lines with oncogenic KRAS variants from multiple cancer types
A high-throughput screen of multi-cell type tumor spheroids was designed to identify active combinations of targeted small molecules and KRAS pathway inhibitors. Complex spheroids include a stromal component modeled by human endothelial cells (HUVEC) and fibroblasts modeled by human mesenchymal stem cells (MSCs). The concentration ranges selected for each drug and investigational agent were based upon clinically achievable concentrations if the clinical Cmax of the agent was known.
Compounds. The drugs and investigational agents: BI-3406 (NSC825286), BAY-293 (NSC824723), batoprotafib (TNO155; NSC825523), sotorasib (AMG 510; NSC818433), MRTX1257 (NSC819558), elimusertib (BAY 1895344; NSC800525), molibresib (GSK525762; NSC774829), temuterkib (LY3214996; NSC803410), venetoclax (NSC766270), alisertib (NSC759677), olaparib (NSC753686), talazoparib (NSC767125), erdafitinib (NSC781556), ipatasertib (NSC767898), cabozantinib (NSC761068), nintedanib (NSC756659), abemaciclib (NSC768073), docetaxel (NSC628503), trametinib (NSC758246), and sapanisertib (NSC764658) were obtained from the National Cancer Institute (NCI) Developmental Therapeutics Program Chemical Repository. The FDA-approved anticancer drug set is available from the Developmental Therapeutics Program. […] The stock solutions were prepared in dimethyl sulfoxide (DMSO, Sigma-Aldrich, St. Louis, MO, cat. D2650) at 800-fold the tested concentration and stored at -70 degrees C prior to their use. All drugs and investigational agents were tested over a range starting from a high concentration at or near the clinical Cmax and decreasing in half-log increments. If the clinical Cmax for an agent had not been determined, the highest concentration tested was 10 microM.
Cell Culture. All cells were maintained in an incubator at 37 degrees C and 5% CO2 with 95% humidity. The PDC lines were cultured according to standard operating procedures established by the NCI PDMR (https://pdmr.cancer.gov/sops/default.htm). Briefly, all PDCs were thawed and cultured in Matrigel-coated flasks prepared with a working solution of 1X Ham's F-12 nutrient mix, without supplementation (Invitrogen, Waltham, MA, cat. 11765054), 100 U/mL penicillin-streptomycin (Invitrogen, cat. 15140122), and 2.5% Matrigel (Corning Inc., Corning, NY, cat. 354248) for the first three passages. All PDCs were cultured in complete DMEM/F-12 media containing advanced DMEM/F-12 (Invitrogen, cat. 12634028), 4.9% defined fetal bovine serum, heat inactivated (HyClone Laboratories Inc., Logan, UT, cat. SH30070.03HI), 389 ng/mL hydrocortisone (Sigma-Aldrich, cat. H4001), 9.7 ng/mL human EGF recombinant protein (Invitrogen, cat. PHG0313), 23.4 microg/mL adenine (Sigma-Aldrich, cat. A2786), 97.3 U/mL penicillin-streptomycin (Invitrogen, cat. 15140122), 1.9 mM L-glutamine (Invitrogen, cat. 25030081), and 9.7 microM Y-27632 dihydrochloride (Tocris Bioscience, Bristol, United Kingdom, cat. 1254). The PDCs were cultured in complete DMEM/F12 media without 9.7 microM Y-27632 dihydrochloride for at least two passages prior to the screen. The established cell line HOP-62 was cultured in RPMI 1640 medium, HEPES (Invitrogen, cat. 22400105) with 10% defined fetal bovine serum (HyClone Laboratories Inc., cat. SH30070.03) and 2 mM L-glutamine (Invitrogen, cat. 25030081). The pooled donor HUVEC were cultured in endothelial cell growth medium 2 (PromoCell, Heidelberg, Germany, cat. C-22011) and the hMSC were cultured in mesenchymal stem cell growth medium 2 (PromoCell, cat. C-28009). For all experiments, HUVEC and hMSC were used at passages </=5, while the malignant cell lines were used at passages </=15. […]

Measured: viability, T/C
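Note: spheroids exposed to agents for seven days before reading; 100% = DMSO vehicle wells so lower means fewer viable cells.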

CC1OCC2(CCN(c3cnc(Sc4ccnc(N)c4Cl)c(N)n3)CC2)C1N (stereo unspecified)
inactive: compound 0.0316 µM 106% and 78.8% | compound 0.1 µM, compound 0.0316 µM 69.4% | compound 0.1 µM, compound 0.316 µM 62.5% | compound 0.1 µM, compound 1 µM 46.5% | compound 0.1 µM, compound 3.16 µM 39.7% | compound 0.1 µM, compound 10 µM 32.9% | compound 0.1 µM 80.8% and 71.2% and 69.3% | compound 0.316 µM, compound 0.0316 µM 56.7% | compound 0.316 µM, compound 0.1 µM 51.2% | compound 0.316 µM, compound 1 µM 43.4% | compound 0.316 µM, compound 3.16 µM 39.7% | compound 0.316 µM, compound 10 µM 31.8% | compound 0.316 µM 60.2% [middle of 4 runs] | compound 1 µM, compound 0.0316 µM 47.4% | compound 1 µM, compound 0.1 µM 48.3% | compound 1 µM, compound 0.316 µM 43.7% | compound 1 µM, compound 3.16 µM 37.2% | compound 1 µM, compound 10 µM 27.5% | compound 1 µM 52% and 43.9% and 42.7% | compound 3.16 µM, compound 0.0316 µM 31.5% | compound 3.16 µM, compound 0.1 µM 37.2% | compound 3.16 µM, compound 0.316 µM 31.4% | compound 3.16 µM, compound 1 µM 29.8% | compound 3.16 µM, compound 10 µM 25.4% | compound 3.16 µM 39.3% and 38.5% and 28.6% | compound 10 µM, compound 0.0316 µM 27.4% | compound 10 µM, compound 0.1 µM 30.7% | compound 10 µM, compound 0.316 µM 23.6% | compound 10 µM, compound 1 µM 25.8% | compound 10 µM, compound 3.16 µM 24.7% | compound 10 µM 31.1% and 33.4% and 22.2%
